From PMC11087540
These are yes or no findings as the source states them, for the method shown. In cells and extracts the contact can be indirect. Some results given as binding are weak or reduced against the parent protein; the word gives no strength.

By UniProt entry, the sequences of proteins in these tests, tags left out. Residues count along the entry.
UniProt O54819, residues 29-306: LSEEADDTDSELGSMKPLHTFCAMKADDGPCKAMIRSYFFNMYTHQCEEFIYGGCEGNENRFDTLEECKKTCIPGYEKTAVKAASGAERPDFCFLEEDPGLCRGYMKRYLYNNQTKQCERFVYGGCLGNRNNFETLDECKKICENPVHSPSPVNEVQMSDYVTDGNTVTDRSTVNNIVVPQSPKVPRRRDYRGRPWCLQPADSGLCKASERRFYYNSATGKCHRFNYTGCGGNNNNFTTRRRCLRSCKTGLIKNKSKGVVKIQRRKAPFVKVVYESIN

Experiments:
Thbd (17-204) segment = target: T1, Thbd (17-204) segment (UniProt P15306); assay: co-IP; HEK293T cells transfected with pcDNA3.1 constructs; lysate supernatant incubated with antibody-coupled Protein A or Protein G beads, washed three times with lysis buffer, Western blot
T1 sequence: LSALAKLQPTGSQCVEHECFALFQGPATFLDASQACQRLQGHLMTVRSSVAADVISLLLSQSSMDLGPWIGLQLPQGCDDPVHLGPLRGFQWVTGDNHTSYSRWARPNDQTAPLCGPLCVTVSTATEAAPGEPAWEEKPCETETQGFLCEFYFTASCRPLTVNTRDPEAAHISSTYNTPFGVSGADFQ

Thbd (thrombomodulin) = Thbd (thrombomodulin) (UniProt P15306); assay: as above
Thbd (205-518) segment = target: T2, Thbd (205-518) segment (UniProt P15306); assay: as above
T2 sequence: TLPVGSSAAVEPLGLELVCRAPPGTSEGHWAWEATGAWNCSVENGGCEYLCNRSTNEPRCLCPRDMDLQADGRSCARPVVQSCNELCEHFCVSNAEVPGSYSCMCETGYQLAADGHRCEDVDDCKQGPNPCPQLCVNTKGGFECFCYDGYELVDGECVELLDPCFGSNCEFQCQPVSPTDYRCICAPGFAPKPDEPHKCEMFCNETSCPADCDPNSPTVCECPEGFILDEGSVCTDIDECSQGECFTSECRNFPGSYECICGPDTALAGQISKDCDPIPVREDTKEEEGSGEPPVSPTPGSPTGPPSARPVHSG

[1] = target: Thbd in F4/80+CD169+Vcam-1+ macrophages (mouse (in F4/80+CD169+Vcam-1+ macrophages sorted from mice; endogenous or transfected not stated)) (UniProt P15306); assay: co-IP; F4/80+CD169+Vcam-1+ macrophages; lysate supernatant incubated with antibody-coupled Protein A or Protein G beads, washed three times with lysis buffer, Western blot

| Substance | binding (Thbd (17-204) segment) | binding (Thbd (thrombomodulin)) | binding (Thbd (205-518) segment) | binding [1] |
| --- | --- | --- | --- | --- |
| Flag-tagged TFPI (tissue factor pathway inhibitor) (from UniProt O54819 29-306) | no binding | binds | binds |  |
| TFPI in F4/80+CD169+Vcam-1+ macrophages (from UniProt O54819 29-306) |  |  |  | binds |
